The chains behind the UniProt entries cited, without tags or fusion partners. Where a name states a change or a piece, a line headed by the entry shows the natural chain unless it says otherwise.
UniProt Q04002: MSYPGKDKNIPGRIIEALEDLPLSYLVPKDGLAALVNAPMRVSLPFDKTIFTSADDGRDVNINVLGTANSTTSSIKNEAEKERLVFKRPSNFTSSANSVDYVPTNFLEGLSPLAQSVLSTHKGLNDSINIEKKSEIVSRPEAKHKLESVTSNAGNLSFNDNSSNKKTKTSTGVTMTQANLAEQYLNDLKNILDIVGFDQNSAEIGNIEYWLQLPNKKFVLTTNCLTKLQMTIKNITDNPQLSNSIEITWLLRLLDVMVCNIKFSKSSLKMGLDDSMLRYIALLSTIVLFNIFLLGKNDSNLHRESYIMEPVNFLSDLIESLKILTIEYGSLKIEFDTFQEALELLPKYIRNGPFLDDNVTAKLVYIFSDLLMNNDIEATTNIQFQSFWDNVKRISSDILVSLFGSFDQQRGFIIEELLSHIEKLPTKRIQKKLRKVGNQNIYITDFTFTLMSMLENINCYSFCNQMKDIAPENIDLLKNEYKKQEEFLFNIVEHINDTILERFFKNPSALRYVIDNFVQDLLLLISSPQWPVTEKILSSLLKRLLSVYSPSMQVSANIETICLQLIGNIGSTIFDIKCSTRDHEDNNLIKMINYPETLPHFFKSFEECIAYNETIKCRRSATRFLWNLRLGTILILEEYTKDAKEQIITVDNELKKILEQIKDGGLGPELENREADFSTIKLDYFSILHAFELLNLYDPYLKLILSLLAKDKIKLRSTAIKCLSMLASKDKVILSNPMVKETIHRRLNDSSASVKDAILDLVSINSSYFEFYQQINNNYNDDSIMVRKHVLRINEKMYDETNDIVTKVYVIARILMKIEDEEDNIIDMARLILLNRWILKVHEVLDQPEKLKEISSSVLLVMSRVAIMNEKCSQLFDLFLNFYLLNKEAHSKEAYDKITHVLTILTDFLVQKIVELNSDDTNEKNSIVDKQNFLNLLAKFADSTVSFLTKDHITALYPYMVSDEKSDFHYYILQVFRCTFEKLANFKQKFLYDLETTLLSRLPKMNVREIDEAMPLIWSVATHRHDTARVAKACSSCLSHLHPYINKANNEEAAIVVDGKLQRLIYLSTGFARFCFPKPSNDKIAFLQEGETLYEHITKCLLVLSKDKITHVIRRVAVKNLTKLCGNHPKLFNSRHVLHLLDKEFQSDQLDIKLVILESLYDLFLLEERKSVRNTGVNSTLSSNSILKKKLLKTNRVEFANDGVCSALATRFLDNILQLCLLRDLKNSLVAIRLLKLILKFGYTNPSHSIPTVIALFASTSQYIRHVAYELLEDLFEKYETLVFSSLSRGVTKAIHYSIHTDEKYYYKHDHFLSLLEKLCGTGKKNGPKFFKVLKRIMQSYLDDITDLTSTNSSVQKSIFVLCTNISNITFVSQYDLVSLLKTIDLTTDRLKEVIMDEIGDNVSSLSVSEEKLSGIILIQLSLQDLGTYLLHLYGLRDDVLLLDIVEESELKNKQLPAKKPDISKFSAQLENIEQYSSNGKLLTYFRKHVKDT

In publication PMC10516938, “Conformational dynamics of cohesin/Scc2 loading complex are regulated by Smc3 acetylation and ATP binding” (Nature Communications, 2023):

Target: T1, Smc3 M74C (S. cerevisiae) (UniProt P47037)
T1 sequence: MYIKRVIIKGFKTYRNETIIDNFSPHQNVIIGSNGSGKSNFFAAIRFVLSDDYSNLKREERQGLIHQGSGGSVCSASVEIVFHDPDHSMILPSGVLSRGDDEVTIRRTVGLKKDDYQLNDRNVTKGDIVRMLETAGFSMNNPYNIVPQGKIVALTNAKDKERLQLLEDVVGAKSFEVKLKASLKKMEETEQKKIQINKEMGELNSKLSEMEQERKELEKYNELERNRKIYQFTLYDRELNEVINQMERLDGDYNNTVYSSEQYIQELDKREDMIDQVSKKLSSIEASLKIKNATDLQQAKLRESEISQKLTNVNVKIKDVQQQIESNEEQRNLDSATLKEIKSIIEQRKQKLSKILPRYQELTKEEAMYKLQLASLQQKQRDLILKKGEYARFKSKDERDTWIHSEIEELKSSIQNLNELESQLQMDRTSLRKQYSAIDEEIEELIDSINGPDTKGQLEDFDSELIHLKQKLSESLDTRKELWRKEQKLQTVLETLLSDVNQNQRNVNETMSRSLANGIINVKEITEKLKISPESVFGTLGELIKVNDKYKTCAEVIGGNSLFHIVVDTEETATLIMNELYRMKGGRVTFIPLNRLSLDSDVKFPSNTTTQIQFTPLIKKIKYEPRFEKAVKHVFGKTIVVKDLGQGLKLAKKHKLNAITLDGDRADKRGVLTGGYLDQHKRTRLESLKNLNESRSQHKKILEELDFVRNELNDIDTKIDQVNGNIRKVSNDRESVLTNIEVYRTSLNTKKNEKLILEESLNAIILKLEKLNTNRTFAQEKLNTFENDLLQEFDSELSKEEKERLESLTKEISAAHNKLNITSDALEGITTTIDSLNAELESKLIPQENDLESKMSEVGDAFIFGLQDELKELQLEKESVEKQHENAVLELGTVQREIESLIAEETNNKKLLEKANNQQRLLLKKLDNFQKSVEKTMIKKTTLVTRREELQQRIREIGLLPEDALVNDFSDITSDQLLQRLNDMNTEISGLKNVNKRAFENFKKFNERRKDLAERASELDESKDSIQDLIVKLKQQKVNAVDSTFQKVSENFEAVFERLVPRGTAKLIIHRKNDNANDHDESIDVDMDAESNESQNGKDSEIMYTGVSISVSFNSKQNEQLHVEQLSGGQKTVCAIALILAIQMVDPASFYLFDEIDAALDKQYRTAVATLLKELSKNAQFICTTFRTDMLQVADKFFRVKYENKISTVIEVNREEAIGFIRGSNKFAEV
Assay: cross-linking; in vivo BMOE cross-link of cysteine pairs in exponentially grown yeast cells (on ice, 6 min); Scc1-PK immunoprecipitated, western blot

binding: binds
Substance: Scc2 E821C (from UniProt Q04002)

Results are given in words; binding and its absence hold for the method and conditions named. In cells and extracts the contact can be indirect. Binding calls can cover weak binding; strength is not graded here.
